The source of these data is patent publication US20040115837A1, “Methods of measuring the dissolution rate of an analyte in a non-aqueous liquid composition” (priority 2002, published 2004).

The data set can be described thus: Recovery of CCFA from drug release media spiked with 1:1 Placebo:Miglyol. The method, then: The accuracy of the methods of the present invention can be determined by measuring the transfer of an analyte from a non-aqueous liquid composition to an aqueous medium where the non-aqueous liquid composition is spiked with a known amount of analyte. The spiked non-aqueous liquid composition is equilibrated with the aqueous drug release medium by shaking or stirring, after which the amount of analyte in the aqueous dissolution medium is determined. The concentration of analyte which transferred to the aqueous medium is then compared to the concentration which would result, in theory, if 100% of the analyte had transferred. (e.g. under the assumptions that no pipetting, weighing errors or losses occur, that 100% of the analyte has dissolved and that 100% of the analyte is detected). Methods of the invention are accurate within the range of from about 70% to about 100%, preferably from about 90% to about 100%.
The recovery of CCFA bulk drug dissolved in drug release media spiked with a 1:1 mixture of placebo lot SFH-10 and Miglyol 812 was assessed by spiking 15 microliters of 1:1 Placebo:Miglyol into 75 mL of standard solutions of CCFA. This spiking level (15 microliters in 75 mL) corresponded to 100 microliters of the Placebo:Miglyol mixture per 500 mL of aqueous medium. This represented a two fold increase in the relative concentration of non-aqueous phase to that specified in the General Dissolution Procedure, thus representing a “worst case” or conservative approach to assessing the potential for negative bias (i.e. incomplete recovery) in the assay. Recovery was determined at six concentrations of CCFA ranging from about 1 to 15 ppm of CCFA in the aqueous phase. For a 200 mg/mL CCFA product, these concentrations corresponded to about 10-150% dissolved. For example, the General Dissolution Procedure specifies measuring the drug release from 50 microliters (0.050 mL) of a 1:1 dilution of CCFA suspension in Miglyol 812 into 500 mL of drug release medium. If 10% of the drug dissolved, the resultant concentration of CCFA in the aqueous phase would be: [formula]
After spiking, the mixtures were equilibrated by shaking on a platform shaker at room two hours. The spiked samples were filtered and the concentration of the termined using HPLC procedure described in the General Dissolution e results are summarized in Table 3.

“And” between values parts separate entries of the source, which are not always exact repeats. Equal values may be shown once.

Take `CO/N=C(\C(=O)N[C@@H]1C(=O)N2C(C(=O)O)=C(CSC(=O)c3ccco3)CS[C@H]12)c1csc(N)n1` [CCFA, ceftiofur crystalline free acid]: the mg/ml measured runs as follows: (No. 1, 0.001008 mg/ml added) 0.001018 mg/mL and 0.001011 mg/mL; (No. 2, 0.002520 mg/ml added) 0.002539 mg/mL and 0.002529 mg/mL; (No. 3, 0.005040 mg/ml added) 0.005031 mg/mL; (No. 4, 0.007540 mg/ml added) 0.007556 mg/mL and 0.007557 mg/mL; (No. 5, 0.010082 mg/ml added) 0.01005 mg/mL and 0.01007 mg/mL; (No. 6, 0.014982 mg/ml added) 0.01497 mg/mL and 0.01495 mg/mL.
